Values from PubChem BioAssay AID602196 (INSERM, 2012)
Here is one part, drawn at random, of about 23,000 reagents tested. In the full data, 455 (2%) got an active call. 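Active includes both protection and sensitisation; some change values fall well beyond the stated -50 to +50 range.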 Not all columns of the deposit are shown. Not stated in the record: the amount of reagent.

Purpose: 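Modifiers of cisplatin sensitivity in A549 cells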
System: human A549 lung cancer cells
Knock-down reagent: siRNA pair against human genes
Duration: 48 h transfection before cisplatin; time from cisplatin to read-out not stated
Conditions: cisplatin at a dose killing half of control-siRNA cells; exact dose and duration not given
Measured: 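Shift in cisplatin death relative to control siRNA, from -50 (all cells die) to +50 (no cells die); siRNAs harmful on their own scored 0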
Direction: two-siRNA summed score (-2 to +2): higher = both siRNAs protect from cisplatin killing; -2 means both sensitise; mean protection from cisplatin (shift in death): higher = protection from cisplatin killing
Rule for the call: 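Each siRNA scores 0 if harmful alone by LDH or WST-1, otherwise +1 if it reduces and -1 if it increases cisplatin killing; a gene is active when both siRNAs agree (sum +2 or -2)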
Meaning of the calls: active = both siRNAs shift cisplatin killing the same way; inactive = no consistent shift, or siRNA harmful alone

gene symbol	two-siRNA summed score (-2 to +2)	mean protection from cisplatin (shift in death) (%)	activity call
TLL2	0	-0.2	inactive
DCP1B	1	13.6	inactive
ACAN	1	19.5	inactive
NFYA	0	8.1	inactive
CALM1	-1	-8.3	inactive
DNASE1L3	0	-3.9	inactive
SULT1C4	0	6.1	inactive
PLEKHA8	0	0.8	inactive
LOC388972	1	15.5	inactive
GPX4	0	12.6	inactive
STARD3	0	-0.7	inactive
TNFRSF14	0	-11.4	inactive
IST1	1	7.3	inactive
B3GNT6	1	11.7	inactive
SAPCD2	-1	-11.3	inactive
MAP2K1P2	0	5	inactive
TMEM67	0	9	inactive
GCKR	0	7.3	inactive
RASIP1	1	5	inactive
RNF208	0	9.7	inactive

5 of these entries, set out differently:
gene symbol | two-siRNA summed score (-2 to +2) | mean protection from cisplatin (shift in death) (%) | activity call
SULT1C4 | 0 | 6.1 | inactive
PLEKHA8 | 0 | 0.8 | inactive
LOC388972 | 1 | 15.5 | inactive
GPX4 | 0 | 12.6 | inactive
STARD3 | 0 | -0.7 | inactive

The list goes on:
gene symbol	two-siRNA summed score (-2 to +2)	mean protection from cisplatin (shift in death) (%)	activity call
OFCC1	0	7	inactive
LOC391269	1	14.6	inactive
UCN3	0	3.2	inactive
HLA-DQA2	0	4.5	inactive
SNX16	0	-0.3	inactive
LOC100506459	1	0.6	inactive
FOXR1	0	1.7	inactive
JHY	0	2.4	inactive
ORC6	0	-0.4	inactive
TRAT1	0	12.2	inactive
HEBP1	0	-1.7	inactive
PHYHIPL	0	9.9	inactive
LOC401330	0	5.9	inactive
SEMA4F	0	-5.3	inactive
AQP3	0	-7	inactive
VHL	0	2.7	inactive
MAG	0	2.1	inactive
FBXL15	0	0	inactive
COL5A1	0	-8.5	inactive
